No constants are given. Whether binding was seen depends on the method and setting.
Biological target: T1, synthetic CX3CR1 peptide (aa 2-21) containing the binding region to CX3CL1
T1 sequence (peptide): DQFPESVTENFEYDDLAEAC
Assay: affinity chromatography; CX3CR1 peptide coupled to CNBr-activated Sepharose 4B; protein (1 mg/ml) loaded in buffer A (0.1 M Mes pH 6.4, 0.5 mM MgCl2, 2 mM EGTA); bound protein eluted with 0.5 M NaCl in buffer A; fractions read by dot immunoblot; both purified

binding: no binding (tested: 1 mg/ml)
B1: synthetic c-terminal Tau peptide (aa 407-432) (peptide)
peptide: HLSNVSSTGSIDMVDSPQLATLADEV

From PMC5558740
